Source: PMC7819943, “Rice protein-binding microarrays: a tool to detect cis-acting elements near promoter regions in rice”
This is one part of the list.

Amino acid sequences for entries named in this document (tags omitted).
UniProt Q0JBA9, entry or part of it: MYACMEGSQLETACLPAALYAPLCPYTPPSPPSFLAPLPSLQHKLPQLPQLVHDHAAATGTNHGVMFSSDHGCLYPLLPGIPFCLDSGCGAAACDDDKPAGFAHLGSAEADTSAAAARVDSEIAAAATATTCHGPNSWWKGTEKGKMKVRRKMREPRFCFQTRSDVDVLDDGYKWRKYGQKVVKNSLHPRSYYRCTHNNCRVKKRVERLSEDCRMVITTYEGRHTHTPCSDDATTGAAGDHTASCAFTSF

What follows are sequences tested against OsWRKY34 (Oryza sativa, UniProt Q0JBA9 1-250) (assay: protein-binding microarray (RPBM); PBS, 2% BSA, 51.3 ng/ul salmon testes DNA, 50 uM zinc acetate, 200 nM TF, 25 C, 1 h; high values mean tight binding). Settings: protein: recombinant; tags: N-terminal polyhistidine and DsRed monomer fusion (pET32a); label: CyDye5-dUTP incorporated in the synthesized complementary strand; 3' TTTTT single-stranded linker to array surface; dsDNA, one strand shown.
In short: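 Polyhistidine-tagged DsRed fusions of transcription factors, joined at the N-terminus, were expressed in E. coli BL21-CodonPlus and isolated on Ni–NTA. They were incubated at 200 nM for 1 h at 25 °C on a custom Agilent array, double-stranded and BSA-blocked, in PBS with 2% BSA, salmon testes DNA and 50 µM zinc acetate. The binding signal is per-feature fluorescence intensity (arbitrary units) read on an Axon 4000B scanner after washing.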

Sequence	binding signal
CACCATACATGTCATCTGCACTGGACCCCTGCGCGATTTCCGGAGTCACCTAGTGCAG	10600 fluorescence intensity (a.u.)
TCCTGGTCCCAATCCGCCATGCCACCGTCACCGTCACCTCCGGAGTCACCTAGTGCAG	13400 fluorescence intensity (a.u.)
TTTCAACCAACTACCTACTCTTTTATTTTAGCTTTCTTTTCGGAGTCACCTAGTGCAG	11000 fluorescence intensity (a.u.)
AATATGCTCTTTATTAAGACTACACGCTTGTCCTAAACTTCGGAGTCACCTAGTGCAG	8590 fluorescence intensity (a.u.)
CCCATTTCCTTCATACCAGTGATATGTTCATACCAGTACTCGGAGTCACCTAGTGCAG	9990 fluorescence intensity (a.u.)
GCCGACGACCTGCCCACCTCCGTCCACGACATCTCCGTCACGGAGTCACCTAGTGCAG	8650 fluorescence intensity (a.u.)
GCTCGGGACCTTATCGCCGTCTCGGCCTCACTCCGGCTGCCGGAGTCACCTAGTGCAG	8720 fluorescence intensity (a.u.)
TAGTTCAACTATTGCTGCATCGCACCGTCGACTAGTCCCGCGGAGTCACCTAGTGCAG	10900 fluorescence intensity (a.u.)
ACATTTAATTCCCCAGCTAGCAACCGCCGGCCACCTCTCTCGGAGTCACCTAGTGCAG	8410 fluorescence intensity (a.u.)
TTTGTTTTTTTTTTCATTTCTGTTGGCTCTTCACATGTACCGGAGTCACCTAGTGCAG	9510 fluorescence intensity (a.u.)
CTGTATATGTTTAGTCATGCTATGTCTGCCTTTTAGTTTTCGGAGTCACCTAGTGCAG	10300 fluorescence intensity (a.u.)
CATAACACTGTAGTTTTCTATTTTGCTTGATCTTCTGTATCGGAGTCACCTAGTGCAG	8150 fluorescence intensity (a.u.)
CCTTTTGTTTTTGGGGCTTGTAGTTTTTGGAAATTTGGGGCGGAGTCACCTAGTGCAG	18300 fluorescence intensity (a.u.)
TGGGCATTTCGCGTATGATTATGGTTCTTTTTGCACAGCTCGGAGTCACCTAGTGCAG	9360 fluorescence intensity (a.u.)
AACAATTCTGTAACTTCTATTTTTTTCCTTTGACTTCCCACGGAGTCACCTAGTGCAG	8720 fluorescence intensity (a.u.)
GGGCCCATGTTGCCAGCCGACGCCGTCCACCCATTCCTTACGGAGTCACCTAGTGCAG	10100 fluorescence intensity (a.u.)
GGTTATACCTCCCGACACCGGCTGTCCACTTCGCTCTGCTCGGAGTCACCTAGTGCAG	9160 fluorescence intensity (a.u.)
CCCCGTTCACGCTGCGCCACCGCCTCCGCCTCCGTCGACTCGGAGTCACCTAGTGCAG	10500 fluorescence intensity (a.u.)
TCGTGACAAAGTTACTTCCGTTTTGTTTTTAGATATTTTTCGGAGTCACCTAGTGCAG	8160 fluorescence intensity (a.u.)
ACTGCCGCTACCCTCTCTTTAGTCCCGGTTATTTCACCTGCGGAGTCACCTAGTGCAG	8280 fluorescence intensity (a.u.)
CCTGCTTGCTCTTTCGCTTTCCTCTCTGCATAGCTTGCAACGGAGTCACCTAGTGCAG	9070 fluorescence intensity (a.u.)

Sequence	binding signal
TTCTAACTCACACGTGTACTTTTATATTTAATATATTTATCGGAGTCACCTAGTGCAG	8760 fluorescence intensity (a.u.)
TAGCCAAACCGGCCCGCTCTTCTGATCCACATCCCGTCGACGGAGTCACCTAGTGCAG	9090 fluorescence intensity (a.u.)
TAGCTGTTGCAATCGTCCCTATTTTCTTCCGTTTGGCCGTCGGAGTCACCTAGTGCAG	8300 fluorescence intensity (a.u.)
ATACTTAAACATTCTTCATTCTTTGTACAATTCTGAAATTCGGAGTCACCTAGTGCAG	8450 fluorescence intensity (a.u.)
GCAAACCACGCTACTACAAAACCATTATTGTAAACACATCCGGAGTCACCTAGTGCAG	8570 fluorescence intensity (a.u.)
CAGATCCACTGAAGGTCCGAATGCATTATGGCCATCCAGACGGAGTCACCTAGTGCAG	8130 fluorescence intensity (a.u.)
TTTTTTTACCTTTGCTGCAAAACAAGTTGTTCGTGTGTCGCGGAGTCACCTAGTGCAG	8750 fluorescence intensity (a.u.)
ACACACACTCCCTCTCTCTTTCTGTACAGTGTCATTCCTTCGGAGTCACCTAGTGCAG	9330 fluorescence intensity (a.u.)
CTTCACTCTGGTCGTGTTTCCGTTTGTTTTCCATCCCATTCGGAGTCACCTAGTGCAG	8920 fluorescence intensity (a.u.)
TTTTGCTTCCGGTGATGTGGTGGTGCTCGGGCCTGTTATTCGGAGTCACCTAGTGCAG	13600 fluorescence intensity (a.u.)
ACCACCACCACCCGCCGCCGCCTCCCTCTCTTTTATGCGTCGGAGTCACCTAGTGCAG	10900 fluorescence intensity (a.u.)
GCCGCATCTTCCGCCGCCTCTGCTTCCGCCTCTGCCCTGGCGGAGTCACCTAGTGCAG	10500 fluorescence intensity (a.u.)
CTTCTTCGTGATGCACCTTTTGCTTTACAGCGCTAGCAATCGGAGTCACCTAGTGCAG	8310 fluorescence intensity (a.u.)
TGTTCAGTTCTACATCGCTTCTGACTCGCAATTTGGTTTCCGGAGTCACCTAGTGCAG	12400 fluorescence intensity (a.u.)
ACACCATGTCACATCCAACTAGGCCCTCCTCCTCTTTGATCGGAGTCACCTAGTGCAG	8460 fluorescence intensity (a.u.)
ACTAGCATCTATAGTTGCTGCCATGTTCAAGGCCGTCCATCGGAGTCACCTAGTGCAG	8400 fluorescence intensity (a.u.)
AAGGCAAACCCTGAGTTTCTGTGTCCAACTTTAACTGTCCCGGAGTCACCTAGTGCAG	8090 fluorescence intensity (a.u.)
CCCGCTGCCACCTCCGAGTCCACTTCTCGCCACCCTCTGCCGGAGTCACCTAGTGCAG	12700 fluorescence intensity (a.u.)
TATCTCTTTTTGGTATGGTCTGCAATTTATATGGTTTCTACGGAGTCACCTAGTGCAG	9500 fluorescence intensity (a.u.)
TACTTTACCGTTCGCTTTACCCTCTCCATAGATGCAAACTCGGAGTCACCTAGTGCAG	9120 fluorescence intensity (a.u.)
TTATGCCAGCCATTTCACTTTTTCCCACGTTTTGTCATTTCGGAGTCACCTAGTGCAG	18900 fluorescence intensity (a.u.)

Some values from the list:
In binding signal, TAGCTGTTGCAATCGTCCCTATTTTCTTCCGTTTGGCCGTCGGAGTCACCTAGTGCAG has the entry 8300 fluorescence intensity (a.u.)
In binding signal, ACTAGCATCTATAGTTGCTGCCATGTTCAAGGCCGTCCATCGGAGTCACCTAGTGCAG has the entry 8400 fluorescence intensity (a.u.)
